# Data reported in US9567643B2, “Compositions and methods for treating cancers” (Aptose Biosciences Inc., priority 2013, dated 2017).
# At least one compound was matched to its structure with a doubt left.
# How the values were obtained:
# [1] = system: THP-1 cells; assay: Annexin V/propidium iodide apoptosis flow cytometry; format: cell-based; settings: 16 hours
# [2] = system: MDS, ALL, CML, ATLL, lymphoma, gastric cancer, and multiple myeloma cell lines; assay: XTT antiproliferative assay, Example 8; format: cell-based; settings: one or more cell lines; XTT as in Example 1; Example 8 in present tense
# [3] = system: Caspase 3; assay: Caspase 3 activity in cell lysates (EnzChek Caspase-3 Assay Kit); format: cell-based; settings: 0.5 μM, 48 hours, FIG. 7
# [4] = system: B-cell CLL/Lymphoma 2 (BCL2); assay: BCL2 expression, quantitative RT-PCR; format: cell-based, human; settings: THP1; 0.5 μM, 48 hours; FIG. 8
# [5] = system: HL-60; assay: Cell cycle analysis, propidium iodide flow cytometry; format: cell-based; settings: 0.5 μM, 16 hours, FIG. 5
# [6] = system: multiple tumor types; assay: Preclinical xenograft models; format: in vivo; settings: preclinical testing
# [7] = system: myelodysplastic syndromes (MDS), ALL, CML, ATLL, lymphoma, gastric cancer, and multiple myeloma; assay: Xenograft models, Example 12; format: in vivo, mice; settings: one or more groups; 1, 5, 10, 20 mg/kg iv, various schedules; Example 12 in present tense
# [8] = system: Caspase 3; assay: Caspase 3 activity, Example 11; format: cell-based; settings: one or more cell lines; 0.1, 0.2, 0.5 or 1 μM, 48 hours; Example 11 in present tense
# [9] = system: cyclin-dependent kinase inhibitor 1A (p21); assay: p21 induction in AML cell lines, quantitative RT-PCR; format: cell-based, human; settings: 0.5 μM, 16 hours, FIG. 4
# [10] = system: THP1; assay: Cell cycle analysis, propidium iodide flow cytometry; format: cell-based; settings: 0.5 μM, 16 hours, FIG. 5
# [11] = system: KLF4 and/or p21; assay: KLF4/p21 induction, quantitative RT-PCR, Example 9; format: cell-based, human; settings: one or more cell lines; 0.1, 0.2, 0.5 or 1 μM, 16 hours; Example 9 in present tense
# [12] = system: BAX, BCL2; assay: BAX/BCL2 expression, quantitative RT-PCR, Example 11; format: cell-based, human; settings: one or more cell lines; Example 11 in present tense
# [13] = system: H226 xenograft; assay: H226 xenograft model, dose and schedule; format: in vivo; settings: H226 xenograft mice; 10 mg/kg iv; groups 2, 3, 4 (3T-12B-3T, 2T-5B-2T, 3T-5B-3T), 2 cycles; FIG. 9
# [14] = system: MDS, ALL, CML, ATLL, lymphoma, gastric cancer, and multiple myeloma cell lines; assay: Cell cycle analysis, Example 10; format: cell-based; settings: one or more cell lines; 0.1, 0.2, 0.5 or 1 μM, 16 hours; Example 10 in present tense
# [15] = system: MDS, ALL, CML, ATLL, lymphoma, gastric cancer, and multiple myeloma cell lines; assay: Annexin V apoptosis flow cytometry, Example 11; format: cell-based; settings: Example 11 in present tense
# [16] = system: Kruppel-like factor 4 (KLF4); assay: KLF4 induction in AML cell lines, quantitative RT-PCR; format: cell-based, human; settings: 0.5 μM, 16 hours, FIG. 4
# [17] = system: BCL2-associated X protein (BAX); assay: BAX expression, quantitative RT-PCR; format: cell-based, human; settings: THP1; 0.5 μM, 48 hours; FIG. 8
# [18] = system: cell lines of lung cancer, bladder cancer, colon cancer, prostate cancer, melanoma, and breast cancer; assay: XTT antiproliferative assay, cell line panel (FIG. 3); format: cell-based
# [19] = system: KLF4 protein; assay: Pharmacodynamic response, KLF4 protein level in tumors; format: in vivo; settings: mice; 1, 5, 15 mg/kg for 5 consecutive days; 16 hours after last dose; FIG. 11
# [20] = system: KLF4 protein; assay: Pharmacodynamic response, KLF4 protein level, Example 13; format: in vivo, mice; settings: one or more treatment; 1, 5, 15 mg/kg for 5 consecutive days; Example 13 in present tense
structure (smiles),measurement,setting,value
Cc1[nH]c2ccc(F)cc2c1-c1nc2c3cccnc3c3ncccc3c2[nH]1 [LOR-253],Annexin V staining (induction of apoptosis),"[1]; 0.5 or 1 uM, FIG. 6",elevated Annexin V staining
same,early apoptotic population (Q3: Annexin V+/PI−),"[1]; increasing concentration (0.5, 1 uM)",increase
same,sensitivity of cell lines to LOR-253,[2],sensitive
same,Caspase 3 activity,[3]; HL-60,elevated Caspase 3 activity
same,Caspase 3 activity,[3]; THP1,elevated Caspase 3 activity
same,BCL2 expression (fold change relative to DMSO),[4],repression of BCL2
same,cell cycle effect,[5],G1/S cell cycle arrest
same,efficacy in xenograft models,[6],efficacy of LOR-253 was demonstrated
same,in vivo efficacy,[7],effectively treated
same,Caspase 3 activity,[8],elevated Caspase 3 activity
same,p21 expression (fold change relative to DMSO),[9]; HL-60,increased expression
same,p21 expression (fold change relative to DMSO),[9]; THP1,increased expression
same,cell cycle effect,[10],G1/S cell cycle arrest
same,KLF4 and/or p21 expression,[11],increased expression KLF4 and/or p21
same,BAX and BCL2 expression,[12],Elevation of BAX and repression of BCL2
same,"in vivo efficacy, tumor size",[13],effectively treated
same,cell cycle effect,[14],G1/S cell cycle arrest
same,early apoptotic population (Q3: Annexin V+/PI−),[15]; increasing concentration,increase
same,Annexin V staining (induction of apoptosis),"[15]; one or more cell lines, 0.1, 0.2, 0.5 or 1 μM, 16 hours",elevated Annexin V staining
same,KLF4 expression (fold change relative to DMSO),[16]; HL-60,increased expression
same,KLF4 expression (fold change relative to DMSO),[16]; THP1,increased expression
same,BAX expression (fold change relative to DMSO),[17],Elevation of BAX
same,sensitivity of cell lines to LOR-253,[18],less sensitive
same,average KLF4 protein levels in tumors,[19],increased in a dose-dependent manner
same,average KLF4 protein levels,[20],increase in a dose-dependent manner
